The full ranking holds about 33,000 sequences; the median of “E-score (-0.5 to 0.5)” is about -0.0034, and the highest 2% start at about 0.25. This is one part of the list.
biological target: T1, Yap3 (UniProt P38749); experiment: PBM E-score (8-mer binding enrichment) (E-score (-0.5 to 0.5)); higher = stronger / more preferred TF binding; conditions: protein concentration: 100 nM; construct: GST-full length
T1 sequence: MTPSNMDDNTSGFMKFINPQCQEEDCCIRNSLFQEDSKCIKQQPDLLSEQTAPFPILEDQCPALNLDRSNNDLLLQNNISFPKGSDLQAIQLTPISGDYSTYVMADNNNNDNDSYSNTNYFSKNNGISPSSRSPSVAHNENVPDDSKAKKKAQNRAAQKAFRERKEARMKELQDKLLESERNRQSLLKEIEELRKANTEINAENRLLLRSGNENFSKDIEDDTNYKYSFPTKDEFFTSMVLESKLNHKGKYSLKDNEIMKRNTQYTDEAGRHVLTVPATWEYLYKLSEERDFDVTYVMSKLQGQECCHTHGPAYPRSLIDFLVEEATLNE
How it was run: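 Yeast transcription factors, full-length or as DNA-binding domains, were expressed with a GST tag using PURExpress in vitro transcription/translation. At about 100-200 nM they were applied to universal all-10-mer Agilent arrays, double-stranded by primer extension on fresh or once-stripped slides. Fluorescent anti-GST detected bound protein, and masliner normalised the scans. E-scores for ungapped eight-base words, pooled with reverse complements, came from the Universal PBM Analysis Suite.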

Sequence	PBM E-score
CAGTTGAC	0.0875
CCGCGCCA	-0.0462
GCGTTGAA	0.0801
AATAGAAC	0.16
GTGGTCTA	-0.118
GCCTTAGC	-0.145
GATGTCCC	-0.134
ATTTTCGA	0.0465
ACGATGCT	-0.0997
AACTAGAA	0.0548
GTCAGGAC	-0.137
CCTAACCC	-0.369
CAAATCCG	0.0064
CAATGGTC	0.127
AAAGGTTC	-0.114
TCAGTGCA	0.0208
GAACACAC	-0.0245
AACCGGGA	-0.124
CAGCAGGA	-0.101
AAGGGAAG	-0.0577
AGAATACG	0.0873
CTTGGTCC	0.0374

Sequence	PBM E-score
CACAACAG	-0.185
ATAATGGC	0.0359
GTCGAAAA	0.12
CAGTCCCA	-0.204
AATGCTCC	-0.0867
AGCCTGGG	-0.287
CAACCTAG	-0.107
CTATACGC	0.066
CTGCTTCC	-0.138
AGAAGTTC	-0.0511
TAAAACTA	0.151
AATTAACA	0.21
TGGCGACA	0.022
ATCCGGGG	-0.0179
AAGGTGTA	0.0912
CACTGCCA	0.0521
AACCCAGT	-0.0655
GGGGGACC	-0.358
CGATCTAA	0.166
AAAGCATT	0.07
CCATGCAA	0.0692
ACTGGCTG	-0.137

Sequence	PBM E-score
GCGACTAC	-0.0411
ACAACTCC	0.146
AGAATGAT	0.209
AAATCCAG	0.249
GTTCGTAA	0.192
GTTGTCCA	0.00253
CAATAGTA	0.165
AAGTACTC	0.124
AGCTGTGA	0.0179
CTTTAGTA	0.0328
CTCACATA	0.0695
TAGTGGAA	-0.0603
TCGGTGCA	0.00506
CATGCATA	0.112
TGAAGGCA	-0.0822
GCTTAACA	0.0767
ATCGAGCC	-0.178
CGGCCCCA	-0.315
GCGCCGGA	-0.178
CCGGCAGA	-0.103
CGGCGATC	-0.086
GACCAGGC	-0.101

Sequence	PBM E-score
ACGCTTAT	-0.04
AAGGTCAA	-0.0138
AACTCCAC	0.0221
GCAGAGCA	-0.267
CTTGCGAC	-0.235
ATAGGGTA	0.0624
GAGTCCTA	-0.192
CTAGGATC	-0.0812
ATTTGGAA	0.0794
TAATTCCA	0.112
GTGCAGAA	-0.0406
AGATTAGC	0.0497
AGAGACAG	-0.0352
TCCCCGAA	-0.217
GGTCCTAA	-0.0735
GGGAAGTA	-0.00126
CGCCTAGA	-0.0286
CATAGGCA	-0.0267
ATGGGCCG	-0.177
TTAATTAA	0.0675
GTCACTTA	0.227
GACGCATC	0.101

Sequence	PBM E-score
CCGCTGTA	0.117
CGCCCACG	-0.166
CAATCGCA	0.11
ACGACTCA	0.0349
CCTTAGGC	-0.219
AGTGTGCG	-0.0621
AGTATCTA	0.145
ACCCTGAC	-0.0668
ATTCGTCA	0.124
GGATCTGA	-0.09
CAATGGGA	-0.0493
GTTATTGA	0.117
ATGGTATC	0.175
ATGGTGTC	0.0603
ACGATTCC	0.0605
AAATATGC	0.00442
CCGTATTA	0.165
GAATGGAC	-0.0511
TAGGTATA	0.176
GGTGGCTA	-0.0493
TCCGCCCA	-0.11
CCAACCGC	0.125

Random excerpt: 4 entries already listed
Sequence	PBM E-score
CCTTAGGC	-0.219
AAATATGC	0.00442
GAATGGAC	-0.0511
ACCCTGAC	-0.0668
